# Source: PubChem BioAssay (NCATS)
# Protein sequences, listed by entry. Tags and fused reporters are not part of them. Lines headed by an entry give the natural chain unless they say otherwise; changes in a name come on top.
# UniProt Q99816: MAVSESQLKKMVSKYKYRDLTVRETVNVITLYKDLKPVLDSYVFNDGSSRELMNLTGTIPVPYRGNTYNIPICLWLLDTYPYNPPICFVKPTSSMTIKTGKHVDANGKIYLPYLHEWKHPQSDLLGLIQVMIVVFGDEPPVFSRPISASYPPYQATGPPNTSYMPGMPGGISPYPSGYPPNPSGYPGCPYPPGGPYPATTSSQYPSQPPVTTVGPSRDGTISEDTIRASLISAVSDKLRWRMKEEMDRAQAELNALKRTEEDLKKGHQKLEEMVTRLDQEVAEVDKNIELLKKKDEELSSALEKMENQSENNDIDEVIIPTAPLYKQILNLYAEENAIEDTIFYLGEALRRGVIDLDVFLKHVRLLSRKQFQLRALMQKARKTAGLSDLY
# UniProt Q8WZA2: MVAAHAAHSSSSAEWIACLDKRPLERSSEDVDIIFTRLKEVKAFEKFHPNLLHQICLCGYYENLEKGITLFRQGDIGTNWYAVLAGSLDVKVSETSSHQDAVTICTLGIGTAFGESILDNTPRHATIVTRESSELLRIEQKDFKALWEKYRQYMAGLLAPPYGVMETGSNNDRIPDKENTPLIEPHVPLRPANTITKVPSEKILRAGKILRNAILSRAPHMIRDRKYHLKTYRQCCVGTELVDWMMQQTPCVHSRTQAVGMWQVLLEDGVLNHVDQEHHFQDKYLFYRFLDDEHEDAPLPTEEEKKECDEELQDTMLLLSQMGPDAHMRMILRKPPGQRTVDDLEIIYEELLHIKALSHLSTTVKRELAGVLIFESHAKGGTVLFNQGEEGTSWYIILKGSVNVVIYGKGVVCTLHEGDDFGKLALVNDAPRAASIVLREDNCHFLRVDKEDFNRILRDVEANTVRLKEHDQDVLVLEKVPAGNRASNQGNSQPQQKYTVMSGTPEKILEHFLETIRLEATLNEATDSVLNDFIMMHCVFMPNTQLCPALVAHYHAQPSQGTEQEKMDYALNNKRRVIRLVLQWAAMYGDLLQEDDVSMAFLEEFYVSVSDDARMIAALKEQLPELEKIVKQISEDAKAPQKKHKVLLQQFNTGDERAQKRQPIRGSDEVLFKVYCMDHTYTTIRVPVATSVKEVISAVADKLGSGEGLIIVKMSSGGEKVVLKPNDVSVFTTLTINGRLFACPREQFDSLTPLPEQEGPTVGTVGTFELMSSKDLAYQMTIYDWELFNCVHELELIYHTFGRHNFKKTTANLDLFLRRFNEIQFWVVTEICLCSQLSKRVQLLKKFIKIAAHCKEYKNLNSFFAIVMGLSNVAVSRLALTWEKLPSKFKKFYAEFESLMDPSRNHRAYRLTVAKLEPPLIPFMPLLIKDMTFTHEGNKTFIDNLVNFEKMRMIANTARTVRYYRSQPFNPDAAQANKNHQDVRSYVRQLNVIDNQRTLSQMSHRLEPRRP
# This list was built around the results that the source calls inconclusive (neither active nor inactive); the mix of calls is not that of the screen. For some assays here: Potencies beside an inconclusive call are fits to weak or partial responses and may not hold up. Activity calls are given as the source filed them. Calls come from the whole dose curve; as a rule, active = well fitted curve in the direction sought with a large enough effect; inconclusive = small, poorly fitted or top-dose-only effect, or another doubt; inactive = no such curve, though single readings can be large; an effect the other way counts as inactive or inconclusive.
# What was measured:
# [1] = molecular target: Tumor susceptibility gene 101 protein (Homo sapiens) (UniProt Q99816); assay: qHTS Assay for Iinhibitors of HIV-1 Budding by Blocking the Interaction of PTAP/TSG101: Hit Validation (AID 651600); settings: PTAP peptide/TSG101 UEV interaction, biochemical assay; note: nearly all actives have a fitted effect of over 70% in size
# Summary of the method: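 Fluorescence polarization binding assay: Tsg101 binding domain (10 uM) mixed with compounds and FITC-labeled PTAP peptide (50 nM) in HEPES pH 7.5, 0.15 M NaCl, 0.01% Tween 20, EDTA, TCEP; 20 min at r.t.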
# [2] = molecular target: Rap guanine nucleotide exchange factor 3 (Homo sapiens) (UniProt O95398); assay: Confirmatory qHTS for antagonist of cAMP-regulated guanine nucleotide exchange factor 3 (EPAC1) (AID 1645880); settings: EPAC1 Rap1B-BODIPY-GDP exchange, fluorescence; series mostly up to 115 µM; note: nearly all actives have a fitted effect of over 55% in size
# Summary of the method: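 Released BODIPY-GDP fluoresces less than Rap1-bound BODIPY-GDP; the signal is followed at 480/540 nm at 5-min intervals over 30 min, after 5 min at room temperature. Reactions contain 100 nM EPAC1, 250 nM RAP1B-BODIPY-GDP and 50 uM GDP; results are normalized to ATA and DMSO.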
# [3] = molecular target: Rap guanine nucleotide exchange factor 3 (Homo sapiens) (UniProt O95398); assay: Confirmatory qHTS for agonist of cAMP-regulated guanine nucleotide exchange factor 3 (EPAC1) (AID 1645881); settings: EPAC1 Rap1B BODIPY-GDP exchange fluorescence; activation: at 154 µM (top of the series), 100% = cAMP control response; note: nearly all actives have a fitted effect of over 75% in size;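 for activation: EPAC1 catalysed release of BODIPY-GDP from Rap1B seen as fluorescence loss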
# [4] = molecular target: Rap guanine nucleotide exchange factor 4 (Homo sapiens) (UniProt Q8WZA2); assay: Confirmatory qHTS for agonist of cAMP-regulated guanine nucleotide exchange factor 4 (EPAC2) (AID 1645884); settings: EPAC2 GEF activity, Rap1B-BODIPY-GDP fluorescence; activation: at 154 µM (top of the series), percent relative to cAMP agonist control;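 note: nucleotide exchange releases bodipy-GDP from Rap1 and this lowers its fluorescence; nearly all actives have a fitted effect of over 65% in size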
# [5] = molecular target: Rap guanine nucleotide exchange factor 3 (Homo sapiens) (UniProt O95398); assay: Counterscreen qHTS for agonist of cAMP-regulated guanine nucleotide exchange factor 3 (EPAC1) (AID 1645889); settings: EPAC1 Rap1B-BODIPY-GDP exchange, fluorescence; activation: at 154 µM (top of the series) unless noted; note: nearly all actives have a fitted effect of over 40% in size
# Summary of the method: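 Rap1B-BODIPY-GDP 250 nM + GDP 50 uM; cpds 7-pt, final 9.74 nM–152 uM (activator mode) or from 7.32 nM upwards (inhibitor mode); RT; FI 480/540 nm at 5 and 30 min, then ± cAMP, reread.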
# Potency is the fitted concentration of half-maximal effect.
SMILES,Potency [1],Potency [2],Potency [3],Potency [4],Potency [5]
COc1ccccc1NC(=O)/C(C#N)=C/c1cc([N+](=O)[O-])ccc1N1CCCC1,active: 14.6 µM,inactive,"inconclusive: 56.2 µM [activator, partial curve, poor fit]",active: 112 µM,"inconclusive: 3.55 µM [activator, full curve, poor fit]"
Cc1nc2c(C(=O)NCc3ccccc3Cl)c[nH]n2c(=O)c1Cc1cccc(Cl)c1,,"inconclusive: 95.3 µM [inhibitor, single point]",inactive,"inconclusive: 50.1 µM [activator, partial curve, poor fit]",inactive
COc1ccc2sc(N(Cc3cccnc3)C(=O)c3ccco3)nc2c1,,"inconclusive: 95.3 µM [inhibitor, partial curve, poor fit]","inconclusive: 70.8 µM [activator, partial curve, poor fit]","inconclusive: 50.1 µM [activator, single point]","inconclusive: 15.8 µM [activator, single point]"
CC1CCN(c2ccc3c(c2)S(=O)(=O)c2cccc(C(=O)NC[C@@H]4CCCO4)c2C3=O)CC1,,"inconclusive: 42.6 µM [inhibitor, partial curve, poor fit]","inconclusive: 70.8 µM [activator, single point]","inconclusive: 112 µM [activator, single point]","inconclusive: 89.1 µM [activator, single point]"
